# Test results from article PMC5996148.
# Protein sequences, listed by entry. Tags and fused reporters are not part of them. Lines headed by an entry give the natural chain unless they say otherwise; changes in a name come on top.
# UniProt Q13093: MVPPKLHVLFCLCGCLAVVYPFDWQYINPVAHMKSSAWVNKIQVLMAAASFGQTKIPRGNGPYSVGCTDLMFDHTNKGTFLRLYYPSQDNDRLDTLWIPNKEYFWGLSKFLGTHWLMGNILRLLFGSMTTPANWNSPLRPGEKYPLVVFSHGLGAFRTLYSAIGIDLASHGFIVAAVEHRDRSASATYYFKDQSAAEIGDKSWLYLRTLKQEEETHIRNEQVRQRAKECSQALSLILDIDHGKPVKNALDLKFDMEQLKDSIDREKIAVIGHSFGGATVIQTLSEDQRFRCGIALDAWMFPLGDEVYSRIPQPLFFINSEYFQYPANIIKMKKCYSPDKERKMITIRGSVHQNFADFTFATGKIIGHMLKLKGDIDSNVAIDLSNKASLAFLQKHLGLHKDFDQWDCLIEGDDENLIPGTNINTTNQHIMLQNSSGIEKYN
# UniProt O60568: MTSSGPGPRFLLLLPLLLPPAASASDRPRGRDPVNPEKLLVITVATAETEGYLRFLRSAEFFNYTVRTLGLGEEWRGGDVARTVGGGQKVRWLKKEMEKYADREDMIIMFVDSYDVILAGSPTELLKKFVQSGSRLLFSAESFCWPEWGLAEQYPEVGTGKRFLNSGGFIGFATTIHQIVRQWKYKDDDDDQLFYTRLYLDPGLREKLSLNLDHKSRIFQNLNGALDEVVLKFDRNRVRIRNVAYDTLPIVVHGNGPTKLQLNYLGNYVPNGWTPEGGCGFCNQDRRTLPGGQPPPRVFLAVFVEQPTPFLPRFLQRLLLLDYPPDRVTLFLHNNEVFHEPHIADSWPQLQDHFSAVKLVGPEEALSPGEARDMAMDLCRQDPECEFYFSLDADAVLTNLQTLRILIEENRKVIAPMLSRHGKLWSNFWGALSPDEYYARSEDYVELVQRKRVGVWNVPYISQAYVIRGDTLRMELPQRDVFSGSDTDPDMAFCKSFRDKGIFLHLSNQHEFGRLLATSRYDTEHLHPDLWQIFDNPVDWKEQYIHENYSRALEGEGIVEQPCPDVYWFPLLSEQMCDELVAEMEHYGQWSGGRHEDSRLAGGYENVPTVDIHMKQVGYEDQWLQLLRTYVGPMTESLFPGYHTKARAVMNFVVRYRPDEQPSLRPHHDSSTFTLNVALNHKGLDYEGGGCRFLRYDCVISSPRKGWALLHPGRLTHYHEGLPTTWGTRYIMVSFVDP
# Where “and” joins values, the source holds several entries; their conditions need not be identical. Equal entries are not always repeated. This is one part of the list. For some assays here: The exact form of the protein is not confirmed.
# Columns and labels:
# Assay in all cases: protein microarray (ProtoArray v5.0), streptavidin-Alexa Fluor 647
# Settings in all cases: 3'-biotin; 20 mM Tris (pH 7.5), 5 mM MgCl2, 100 mM KCl, 0.1% Tween-20, A/T-rich and random oligonucleotide blockers; temperature not stated; high values mean tight binding
# PHGDH (human) = system: PHGDH (human)
# PI15 (human) = system: PI15 (human)
# PIGA (human) = system: PIGA (human)
# PIM2 (human) = system: PIM2 (human)
# PIPOX (human) = system: PIPOX (human)
# PIR (human) = system: PIR (human)
# PITPNC1 (human) = system: PITPNC1 (human)
# PKIB (human) = system: PKIB (human)
# PKNOX1 (human) = system: PKNOX1 (human)
# PLA2G10 (human) = system: PLA2G10 (human)
# PLA2G7 = PLA2G7 (UniProt Q13093)
# PLB1 (human) = system: PLB1 (human)
# PLD3 (human) = system: PLD3 (human)
# PLEKHA3 (human) = system: PLEKHA3 (human)
# PLEKHG5 (human) = system: PLEKHG5 (human)
# PLG (human) = system: PLG (human)
# PLOD3 = PLOD3 (UniProt O60568)
# PLS3 (human) = system: PLS3 (human)
# PLXDC1 (human) = system: PLXDC1 (human)
# PMCH (human) = system: PMCH (human)
sequence,measurement,setting,value
GGGAGGCTGAGGCAGG [G4-1 biotinylated (PQS2)],binding signal,PHGDH (human),-0.327 z-score
same,binding signal,PI15 (human),-0.309 z-score
same,binding signal,PIGA (human),-0.318 z-score
same,binding signal,PIM2 (human),-0.345 z-score
same,binding signal,PIPOX (human),-0.33 z-score
same,binding signal,PIR (human),-0.312 z-score
same,binding signal,PITPNC1 (human),-0.344 z-score
same,binding signal,PKIB (human),-0.345 z-score
same,binding signal,PKNOX1 (human),-0.339 z-score
same,binding signal,PLA2G10 (human),-0.276 z-score
same,binding signal,PLA2G7,-0.319 z-score
same,binding signal,PLB1 (human),-0.313 z-score
same,binding signal,PLD3 (human),-0.31 z-score
same,binding signal,PLEKHA3 (human),-0.302 z-score
same,binding signal,PLEKHG5 (human),-0.278 z-score
same,binding signal,PLG (human),-0.27 z-score and -0.249 z-score
same,binding signal,PLOD3,-0.31 z-score
same,binding signal,PLS3 (human),-0.349 z-score
same,binding signal,PLXDC1 (human),-0.336 z-score
same,binding signal,PMCH (human),-0.339 z-score

# An excerpt of these results, as tab-separated lines.
sequence	measurement	setting	value
GGGAGGCTGAGGCAGG [G4-1 biotinylated (PQS2)]	binding signal	PLG (human)	-0.27 z-score and -0.249 z-score
same	binding signal	PLOD3	-0.31 z-score
